## Results of single-concentration screens

Amino acid sequences for entries named in this document (tags omitted). Residues count along the entry.
UniProt I6X8D2, whole entry: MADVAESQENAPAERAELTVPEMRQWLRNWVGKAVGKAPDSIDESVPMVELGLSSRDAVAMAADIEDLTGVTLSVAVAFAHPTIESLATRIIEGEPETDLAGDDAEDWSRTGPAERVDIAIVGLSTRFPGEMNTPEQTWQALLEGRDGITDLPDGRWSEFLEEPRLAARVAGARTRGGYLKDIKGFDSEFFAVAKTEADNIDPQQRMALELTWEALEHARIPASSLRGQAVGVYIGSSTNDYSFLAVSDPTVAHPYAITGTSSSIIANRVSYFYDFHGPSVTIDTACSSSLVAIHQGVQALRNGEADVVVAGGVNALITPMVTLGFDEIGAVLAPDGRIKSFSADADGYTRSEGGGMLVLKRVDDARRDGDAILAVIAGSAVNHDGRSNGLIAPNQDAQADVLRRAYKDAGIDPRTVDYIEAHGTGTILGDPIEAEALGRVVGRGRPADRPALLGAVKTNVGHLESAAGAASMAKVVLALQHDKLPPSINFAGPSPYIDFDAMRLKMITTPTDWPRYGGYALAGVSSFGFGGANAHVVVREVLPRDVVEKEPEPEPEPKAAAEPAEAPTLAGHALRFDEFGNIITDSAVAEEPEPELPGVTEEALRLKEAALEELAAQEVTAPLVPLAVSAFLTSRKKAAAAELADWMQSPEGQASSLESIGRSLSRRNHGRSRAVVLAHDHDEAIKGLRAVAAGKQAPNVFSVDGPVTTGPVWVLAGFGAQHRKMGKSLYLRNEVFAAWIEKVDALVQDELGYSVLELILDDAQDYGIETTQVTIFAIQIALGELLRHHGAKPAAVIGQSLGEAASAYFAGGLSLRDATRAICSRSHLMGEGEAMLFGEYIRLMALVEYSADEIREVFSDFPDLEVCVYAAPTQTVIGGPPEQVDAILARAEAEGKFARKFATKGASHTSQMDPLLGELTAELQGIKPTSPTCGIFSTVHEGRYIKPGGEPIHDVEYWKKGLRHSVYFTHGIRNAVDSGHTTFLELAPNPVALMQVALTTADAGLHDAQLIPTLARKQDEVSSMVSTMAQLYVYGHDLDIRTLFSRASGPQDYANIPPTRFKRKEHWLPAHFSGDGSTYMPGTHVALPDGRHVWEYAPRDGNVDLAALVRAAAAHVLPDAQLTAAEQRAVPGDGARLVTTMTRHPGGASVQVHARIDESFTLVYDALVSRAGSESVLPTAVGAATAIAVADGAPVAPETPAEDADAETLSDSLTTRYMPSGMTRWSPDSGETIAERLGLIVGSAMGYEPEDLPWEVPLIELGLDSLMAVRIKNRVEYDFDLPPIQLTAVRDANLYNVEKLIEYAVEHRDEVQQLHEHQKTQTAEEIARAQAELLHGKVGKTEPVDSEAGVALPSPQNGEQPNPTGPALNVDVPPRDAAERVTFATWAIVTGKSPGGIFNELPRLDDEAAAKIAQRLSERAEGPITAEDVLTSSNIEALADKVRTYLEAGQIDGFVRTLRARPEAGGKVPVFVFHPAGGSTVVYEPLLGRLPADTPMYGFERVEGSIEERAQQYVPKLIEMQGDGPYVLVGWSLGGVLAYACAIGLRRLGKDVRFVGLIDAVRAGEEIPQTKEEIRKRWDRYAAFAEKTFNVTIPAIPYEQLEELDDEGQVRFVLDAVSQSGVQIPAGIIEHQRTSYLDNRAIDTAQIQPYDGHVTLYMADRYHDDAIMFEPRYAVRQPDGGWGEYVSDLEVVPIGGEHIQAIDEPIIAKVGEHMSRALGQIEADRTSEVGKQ
UniProt Q4DA54, 1-478: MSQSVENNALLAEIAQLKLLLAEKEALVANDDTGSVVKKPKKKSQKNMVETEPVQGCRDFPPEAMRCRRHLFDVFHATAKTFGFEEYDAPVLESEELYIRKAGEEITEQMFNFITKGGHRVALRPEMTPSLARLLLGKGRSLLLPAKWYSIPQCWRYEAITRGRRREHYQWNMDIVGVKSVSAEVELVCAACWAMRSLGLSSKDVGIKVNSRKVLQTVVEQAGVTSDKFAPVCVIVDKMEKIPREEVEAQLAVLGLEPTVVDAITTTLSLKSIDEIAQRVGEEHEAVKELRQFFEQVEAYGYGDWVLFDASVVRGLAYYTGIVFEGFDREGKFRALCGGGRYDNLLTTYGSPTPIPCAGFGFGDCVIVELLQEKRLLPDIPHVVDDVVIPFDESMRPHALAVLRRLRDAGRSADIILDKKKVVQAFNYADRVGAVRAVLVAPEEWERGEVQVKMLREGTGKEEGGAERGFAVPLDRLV
UniProt P9WFT3, whole entry: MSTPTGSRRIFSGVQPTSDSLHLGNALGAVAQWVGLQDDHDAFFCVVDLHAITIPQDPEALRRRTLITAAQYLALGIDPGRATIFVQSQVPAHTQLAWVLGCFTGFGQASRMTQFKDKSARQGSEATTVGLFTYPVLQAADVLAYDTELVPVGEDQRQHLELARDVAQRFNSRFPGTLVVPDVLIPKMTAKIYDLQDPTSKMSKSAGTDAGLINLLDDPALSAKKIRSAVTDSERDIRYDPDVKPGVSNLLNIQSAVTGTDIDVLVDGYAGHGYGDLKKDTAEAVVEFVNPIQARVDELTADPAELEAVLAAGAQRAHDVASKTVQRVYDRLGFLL
UniProt P9WPC5, whole entry: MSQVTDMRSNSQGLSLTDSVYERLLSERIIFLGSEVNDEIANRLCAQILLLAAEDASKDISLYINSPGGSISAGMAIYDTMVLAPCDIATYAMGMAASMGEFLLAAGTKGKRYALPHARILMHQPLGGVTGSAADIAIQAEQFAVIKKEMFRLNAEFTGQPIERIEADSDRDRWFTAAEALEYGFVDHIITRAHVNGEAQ
UniProt P9WPC3, whole entry partner: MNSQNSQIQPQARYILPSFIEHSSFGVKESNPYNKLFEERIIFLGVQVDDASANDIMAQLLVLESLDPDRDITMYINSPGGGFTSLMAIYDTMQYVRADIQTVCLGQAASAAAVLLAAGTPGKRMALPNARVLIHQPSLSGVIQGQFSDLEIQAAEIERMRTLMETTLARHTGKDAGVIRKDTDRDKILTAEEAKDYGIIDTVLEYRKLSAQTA

Pks13 thioesterase: 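Enzyme assay of the thioesterase domain of polyketide synthase 13; the read-out is not stated. Target: Polyketide synthase Pks13, Mycobacterium tuberculosis (UniProt I6X8D2). Tested at 30 µM. The record gives no direction; the compounds picked for IC50 retests had high values, so higher reads as stronger inhibition. Size under these conditions: about 67,000 compounds, about 300 of them at 50% or above in at least one test.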
TcHisRS: 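Enzyme assay of histidyl-tRNA synthetase; the read-out is not stated. Target: Histidine-tRNA ligase, Trypanosoma cruzi CL Brener (UniProt Q4DA54). Concentration: 30 µM. The record gives no direction; compounds that gave an IC50 in retests scored well above the rest, so higher reads as stronger inhibition. Size under these conditions: about 69,000 compounds, about 31 of them at 50% or above in at least one test.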
MtTrpRS: 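Enzyme assay of tryptophanyl-tRNA synthetase; the read-out is not stated. Target: Tryptophan-tRNA ligase, Mycobacterium tuberculosis (UniProt P9WFT3). Compounds at 10 µM. Direction is not recorded; retested compounds ran higher, which suggests that high means inhibition. About 65,000 compounds were tested under these conditions; 0.098% (about 64) showed 50% or more at least once.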
ClpP1P2: 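Protease assay of ClpP1P2, read by the AMC dye that it sets free. Target: ClpP1P2, Mycobacterium tuberculosis (UniProt P9WPC5 and UniProt P9WPC3). Compounds at 50 µM. Direction is inferred from only a few compounds that gave an IC50; most scored high, so higher reads as stronger inhibition. Most other retested compounds had strongly negative values. About 69,000 compounds were tested under these conditions; 0.015% (about 10) showed 50% or more at least once.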

Each number is a percent effect as filed.
The controls that fix the scale are not given in the record; negative values are as filed.
This is an unselected part of the compounds tested.
A dash means the value is not listed here; it may have been measured.

structure,Pks13 thioesterase,TcHisRS,MtTrpRS,ClpP1P2
CC(C)N(C)C(=O)C1CCN(Cc2cc3c(cc2O)CCC3)CC1,-,6.494,-0.3096,7.131
Cc1cnn(C2CCCN(C(=O)c3cc(Cl)c4c(c3)OCO4)C2)c1 (stereo not shown),-16.11,-3.944,14.31,9.249
CCc1ncncc1C(=O)N1CCN(Cc2ccsc2)CC1,-30.25,0.578,13.49,-3.812
CN1C(=O)CCC12CCCN(C(=O)c1ccncc1F)C2 (stereo not shown),9.133,12.85,-,3.008
Brc1ccc2[nH]c3c(c2c1)CCCC3c1nn[nH]n1 (stereo not shown),9.882,1.98,4.078,3.986
Cc1nc(C)n(CCCNc2ncnc(C)c2C)n1,-3.434,1.266,-2.511,5.479
Cc1cc(C(=O)N2CCC(NC(=O)c3cccnc3)CC2)c(C)o1,-11.63,9.244,-3.027,6.694
Cn1c(C2CC2)nc2c1CCN(Cc1nc(Cc3ccccc3)no1)C2,-8.701,9.249,-2.416,-17.25
Cc1ccc(C2CSCCN2C(=O)c2cnsn2)o1 (stereo not shown),-0.02287,2.591,3.25,3.32
CC(C)n1nc2c(cc1=O)CN(Cc1nnc(C3CC3)o1)CC2,7.919,4.167,-0.8244,2.013
COCCNC(=O)c1cc(S(=O)(=O)N2CCCCCC2)cs1,-16.64,6.667,-,14.85
CC(C)(C)n1nnnc1CN(Cc1ccccc1)Cc1ccc(Cl)cc1,4.92,5.639,0.2342,-5.556
COCc1ncn2c1CN(S(=O)(=O)Cc1ccc(C)cc1)CC2,-37.32,4.95,-2.49,2.536
Cc1cccc(SC2CCN(C(=O)CCCn3cnnn3)CC2)c1,14.36,5.941,7.235,-6.151
CN1CCc2onc(Cn3cccc3)c2C1,-30.07,6.897,-2.705,3.487
COc1cccc(CNc2nc(C)cc(C)n2)c1OC,-20.46,2.186,-3.726,11.75
O=C(CN1C(=O)CCC1=O)N1CCOC2(CCOCC2)C1,-13.23,1.463,-3.076,-10.76
CCn1c(N)nc2cc(C(=O)N3CC(c4ccccn4)C3)cnc21,-16.11,1.622,-1.487,2.763
Cc1nc(CN(C)C(=O)NC(C)c2ccc3c(c2)OCCO3)cs1 (stereo not shown),58.02,0.4425,-3.745,14.12
CC(NCc1ccc(Cl)o1)c1nnc2n1CCCC2 (stereo not shown),-16.88,-2.674,9.568,12.72
COc1ccc(-c2c[nH]c(C3CC(=O)N(CC(C)C)C3)n2)cc1 (stereo not shown),-39.7,0.5435,1.257,-9.74
CC(C)c1nc(CCN(C)C(=O)C2COc3ccccc3C2)no1 (stereo not shown),-5.046,-4.523,0.2174,-19.72
CCC(NC(=O)c1ccc(COC)o1)c1nc(C(F)(F)F)cs1 (stereo not shown),3.424,-1.961,23.83,-8.053
O=C(c1cnccn1)N1C[C@@H]2CCN(c3cnccn3)C[C@@H]2C1,-30.32,7.216,2.535,3.068
CC(=O)NC(C)(C)c1noc(C2(C#N)CCCCC2)n1,-38.31,1.571,-3.815,-0.06317
CC(C)c1ccc(O)c(C(=O)NCc2cc[nH]n2)c1,-9.449,2.041,-2.424,-11.8
Cc1cccc(NC(=O)C2CCc3ccccc3N2)c1 (stereo not shown),11.07,13.11,-11.33,-2.016
COc1ccccc1OC(C)CNC(=O)c1cnc[nH]1 (stereo not shown),-2.784,-2.488,0.7651,-14.83
CCc1n[nH]c(C2CN(CCCOc3cccc(C)c3)CCO2)n1 (stereo not shown),-37.88,6.557,-4.173,-2.548
O=C1CC[C@H]2CN(Cc3ncc[nH]3)CC[C@H]2N1CC1CCNCC1,-5.705,6.358,-3.271,-9.396
Cc1cnn(CC2CN(CC(=O)NCc3ccco3)CCO2)c1 (stereo not shown),-1.928,2.254,3.067,-8.493
c1cncc(COCc2nnc3n2CCN(Cc2ccoc2)C3)c1,-4.499,1.674,3.728,10.31
CN(CC(N)=O)S(=O)(=O)c1ccc(F)cc1Cl,-14.01,2.479,2.056,-0.7267

Once more, the final 3:

{"structure": "Cc1cnn(CC2CN(CC(=O)NCc3ccco3)CCO2)c1", "stereo": "stereo not shown", "Pks13 thioesterase": -1.928, "TcHisRS": 2.254, "MtTrpRS": 3.067, "ClpP1P2": -8.493}
{"structure": "c1cncc(COCc2nnc3n2CCN(Cc2ccoc2)C3)c1", "Pks13 thioesterase": -4.499, "TcHisRS": 1.674, "MtTrpRS": 3.728, "ClpP1P2": 10.31}
{"structure": "CN(CC(N)=O)S(=O)(=O)c1ccc(F)cc1Cl", "Pks13 thioesterase": -14.01, "TcHisRS": 2.479, "MtTrpRS": 2.056, "ClpP1P2": -0.7267}

Data taken from ChEMBL document CHEMBL3988442, “University of Dundee, Small-Polar-MMV Screening Library” (2021).